Experimental data: article PMC5996148
Some of the results follow.

Key:
Assay in all cases: protein microarray (ProtoArray v5.0), streptavidin-Alexa Fluor 647
Conditions in all cases: 3'-biotin; 20 mM Tris (pH 7.5), 5 mM MgCl2, 100 mM KCl, 0.1% Tween-20, A/T-rich and random oligonucleotide blockers; temperature not stated; high values mean tight binding
[1] = test system: Mediator of RNA polymerase II transcription subunit 4 (human)
[2] = test system: Melanocortin-2 receptor accessory protein (human)
[3] = test system: Melanoma-associated antigen 3 (human)
Melanoregulin (human) = test system: Melanoregulin (human)
[4] = test system: Metal transporter CNNM3 (human)
[5] = test system: Mitochondrial chaperone BCS1 (human)
[6] = test system: Mitochondrial coiled-coil domain protein 1 (human)
[7] = test system: Mitochondrial import inner membrane translocase subunit TIM14 (human)
[8] = test system: Mitogen-activated protein kinase 10 (human)
[9] = test system: Myelin basic protein (human)

GGTGACAGGGGTATGGGGAGGGG [G4-2 biotinylated (Ct1)]
binding signal [1]: -0.392 z-score
binding signal [2]: -0.376 z-score
binding signal [3]: -0.402 z-score
binding signal (Melanoregulin (human)): -0.371 z-score
binding signal [4]: -0.366 z-score
binding signal [5]: -0.389 z-score
binding signal [6]: -0.375 z-score
binding signal [7]: 3.83 z-score
binding signal [8]: -0.392 z-score
binding signal [9]: -0.38 z-score
